Data published in the supplement of paper PMC10735217.
This is one part of the list. Single values are uncertain here, since repeats match poorly.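 Human kidney-derived cells stably carry a construct in which eight TEAD-binding elements drive luciferase, measured by luminescence in a drug-repurposing library screen. A hit is any compound whose signal exceeds the plate mean by more than five robust Z scores.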

Test system: HEK293A TEAD-LUC reporter
Assay: TEAD-luciferase reporter activity (YAP activation), robust Z score vs plate; higher = stronger YAP/TEAD activation
Conditions: 24 h

| Structure (SMILES) | TEAD-luciferase reporter activity (compound concentration: 2 uM) | TEAD-luciferase reporter activity (compound concentration: 200 nM) | TEAD-luciferase reporter activity (compound concentration: 10 uM) |
| --- | --- | --- | --- |
| CN/C(=N/CCSCc1nc[nH]c1C)NC#N [cimetidine, Metatron] | inactive: -0.818 | – | – |
| CN/C(=N/CCSCc1nc[nH]c1C)NC#N [Cimetidine] | – | inactive: -2.75 | inactive: 2.9 |
| Cc1c(-c2ccccc2F)[nH]c(N)c1C#N | inactive: 0.68 | inactive: 1.57 | active: 5.13 |
| CNC(=O)[C@@H](NC(=O)[C@H](CC(C)C)[C@H](O)C(=O)NO)C(C)(C)C [Marimastat] | inactive: 0.25 | inactive: 3.46 | inactive: 0.297 |
| CCCCC(C)(O)C/C=C/[C@H]1[C@H](O)CC(=O)[C@@H]1CCCCCCC(=O)OC (stereo partly drawn) [Misoprostol] | – | – | inactive: 0.93 |
| NC(=O)c1ccc(N(C(N)=O)c2c(F)cccc2F)nc1-c1ccc(F)cc1F | inactive: -1.71 | inactive: -1.42 | inactive: -1.81 |
| CCNCCCNC/C=C\CNCCCNCC | inactive: -1.66 | inactive: -1.13 | inactive: -1.1 |
| COc1cccc(C(=O)NC2CCN(C(=O)c3ccc(-c4cccc(OC)c4)cc3)CC2)c1 | – | inactive: 2.35 | inactive: 0.567 |
| CCCN(CCC)C(=O)C1=Cc2ccc(-c3ccc(C(=O)N4CCCC4)cc3)cc2N=C(N)C1 [Motolimod] | – | inactive: -0.468 | inactive: 0.99 |
| CO[C@H]1C(=O)[C@]2(C)[C@@H](OC)C[C@H]3OCC3(OC(C)=O)[C@H]2[C@H](OC(=O)c2ccccc2)[C@]2(O)C[C@H](OC(=O)[C@H](O)[C@@H](NC(=O)OC(C)(C)C)c3ccccc3)C(C)=C1C2(C)C (stereo partly drawn) [cabazitaxel] | inactive: -2.13 | inactive: 0.187 | inactive: 4.57 |
| N=C(N)c1cccc(CCCCC(=O)N[C@@H](CC(=O)O)C(=O)N[C@@H](Cc2ccccc2)C(=O)O)c1 | inactive: -0.113 | inactive: 2.96 | inactive: 0.506 |
| CCCCCCCN(Cc1ccc(CC(C)(C)C)cc1)C(=O)Nc1ccc(F)cc1F | inactive: -1.27 | inactive: -1.16 | inactive: 2.27 |
| OCCN1CCN(c2cc(-c3ccccc3)c(C(F)(F)F)nn2)CC1 | inactive: -1.87 | inactive: -1.29 | inactive: -0.0583 |
| O=C1OC(CN2CCOCC2)CN1/N=C/c1ccc([N+](=O)[O-])o1 (stereo not drawn) | inactive: 1.75 | inactive: -0.192 | inactive: 1.56 |
| C[C@@H](NC(=O)Cc1c(Cl)ccc(NCC(F)(F)c2cccc[n+]2[O-])[n+]1[O-])c1cccc(Cl)c1 | inactive: 0.768 | inactive: 0.791 | inactive: 2.83 |

Quoted from the entries so far for reference:

| Structure (SMILES) | TEAD-luciferase reporter activity (compound concentration: 2 uM) | TEAD-luciferase reporter activity (compound concentration: 200 nM) | TEAD-luciferase reporter activity (compound concentration: 10 uM) |
| --- | --- | --- | --- |
| COc1cccc(C(=O)NC2CCN(C(=O)c3ccc(-c4cccc(OC)c4)cc3)CC2)c1 | – | inactive: 2.35 | inactive: 0.567 |
| CCCN(CCC)C(=O)C1=Cc2ccc(-c3ccc(C(=O)N4CCCC4)cc3)cc2N=C(N)C1 [Motolimod] | – | inactive: -0.468 | inactive: 0.99 |
| CO[C@H]1C(=O)[C@]2(C)[C@@H](OC)C[C@H]3OCC3(OC(C)=O)[C@H]2[C@H](OC(=O)c2ccccc2)[C@]2(O)C[C@H](OC(=O)[C@H](O)[C@@H](NC(=O)OC(C)(C)C)c3ccccc3)C(C)=C1C2(C)C (stereo partly drawn) [cabazitaxel] | inactive: -2.13 | inactive: 0.187 | inactive: 4.57 |
